These are yes or no findings as the source states them, for the method shown. Binding seen in cells or lysates may run through a third protein. Binding can be weak; no strength is given. Tags and fused reporters may be left off the sequences shown.

Chains of the proteins cited; added tags and fusions are not shown. Lines headed by an entry give the natural chain unless they say otherwise; changes in a name come on top.
UniProt P47756: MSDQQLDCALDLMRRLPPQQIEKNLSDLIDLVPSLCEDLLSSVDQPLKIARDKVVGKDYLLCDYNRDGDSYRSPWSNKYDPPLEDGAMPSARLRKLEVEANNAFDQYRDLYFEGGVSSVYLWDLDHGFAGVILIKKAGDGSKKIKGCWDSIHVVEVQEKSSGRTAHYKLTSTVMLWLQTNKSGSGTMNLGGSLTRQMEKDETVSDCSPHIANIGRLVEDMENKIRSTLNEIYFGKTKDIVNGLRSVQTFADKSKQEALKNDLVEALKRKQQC
UniProt Q9UJ41: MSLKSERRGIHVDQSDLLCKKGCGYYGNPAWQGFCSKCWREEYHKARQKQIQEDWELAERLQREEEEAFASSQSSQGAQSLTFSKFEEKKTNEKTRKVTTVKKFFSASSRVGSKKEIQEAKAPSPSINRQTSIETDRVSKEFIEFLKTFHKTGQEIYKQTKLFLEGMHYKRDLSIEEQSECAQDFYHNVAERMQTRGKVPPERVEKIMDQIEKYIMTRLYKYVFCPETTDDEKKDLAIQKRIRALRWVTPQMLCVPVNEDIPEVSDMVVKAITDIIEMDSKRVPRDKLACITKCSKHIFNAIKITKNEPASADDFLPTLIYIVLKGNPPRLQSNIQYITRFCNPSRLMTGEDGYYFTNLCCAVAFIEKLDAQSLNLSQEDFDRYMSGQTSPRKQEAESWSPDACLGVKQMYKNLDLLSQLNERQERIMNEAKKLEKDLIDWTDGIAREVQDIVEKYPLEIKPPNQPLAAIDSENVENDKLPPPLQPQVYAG

For the experiment, the target named is Myc-CapZβ (UniProt P47756). Put plainly: co-IP; HEK 293T cells co-transfected with Myc-CapZβ and the tagged partner, treated with DMSO or V1 (1 μM) for 12 h; lysis buffer 50 mM Tris-HCl pH 7.5, 150 mM NaCl, 1 mM EDTA, 1% Triton X-100; lysate on anti-c-Myc magnetic beads at 4 °C overnight; immunoblot against HA or Flag tag. (A western blot detects proteins with antibodies after separation by electrophoresis.)

As to HA-Rabex-5 (from UniProt Q9UJ41 1-491), the binding entry is “binds”.

B1: Flag-Rabaptin-5 (protein, UniProt Q15276 1-862)
chain: MAQPGPASQPDVSLQQRVAELEKINAEFLRAQQQLEQEFNQKRAKFKELYLAKEEDLKRQNAVLQAAQDDLGHLRTQLWEAQAEMENIKAIATVSENTKQEAIDEVKRQWREEVASLQAVMKETVRDYEHQFHLRLEQERTQWAQYRESAEREIADLRRRLSEGQEEENLENEMKKAQEDAEKLRSVVMPMEKEIAALKDKLTEAEDKIKELEASKVKELNHYLEAEKSCRTDLEMYVAVLNTQKSVLQEDAEKLRKELHEVCHLLEQERQQHNQLKHTWQKANDQFLESQRLLMRDMQRMEIVLTSEQLRQVEELKKKDQEDDEQQRLNKRKDHKKADVEEEIKIPVVCALTQEESSAQLSNEEEHLDSTRGSVHSLDAGLLLPSGDPFSKSDNDMFKDGLRRAQSTDSLGTSGSLQSKALGYNYKAKSAGNLDESDFGPLVGADSVSENFDTASLGSLQMPSGFMLTKDQERAIKAMTPEQEETASLLSSVTQGMESAYVSPSGYRLVSETEWNLLQKEVHNAGNKLGRRCDMCSNYEKQLQGIQIQEAETRDQVKKLQLMLRQANDQLEKTMKDKQELEDFIKQSSEDSSHQISALVLRAQASEILLEELQQGLSQAKRDVQEQMAVLMQSREQVSEELVRLQKDNDSLQGKHSLHVSLQQAEDFILPDTTEALRELVLKYREDIINVRTAADHVEEKLKAEILFLKEQIQAEQCLKENLEETLQLEIENCKEEIASISSLKAELERIKVEKGQLESTLREKSQQLESLQEIKISLEEQLKKETAAKATVEQLMFEEKNKAQRLQTELDVSEQVQRDFVKLSQTLQVQLERIRQADSLERIRAILNDTKLTDINQLPET
Turning to B1, the binding entry is reported as “binds”.

Values taken from publication PMC10809671.
